Measurements reported in PubChem BioAssay AID1159584 (Peter MacCallum Cancer Centre, 2016)
Test: 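Genes that CDH1-null MCF10A cells selectively depend on to survive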 (primary screen). Cells: human MCF10A breast epithelial cells, parental and CDH1-null. Knock-down reagent: siRNA against human genes. Measurement: 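ATP luminescence (CellTiter-Glo) viability per line relative to mean mock wells over all plates, and the ratio of CDH1-null to parental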. Direction: CDH1-null / parental viability ratio: higher = CDH1-null cells survive relatively better than parental; CDH1-null viability vs mock: higher = more viable CDH1-null cells; parental viability vs mock: higher = more viable parental cells.
The deposit covers about 18,000 reagents; this is a random part of them. The record does not give: the amount of reagent, the time to read-out.

| target | CDH1-null / parental viability ratio | CDH1-null viability vs mock (fraction of mock) | parental viability vs mock (fraction of mock) |
| --- | --- | --- | --- |
| ZNF624 (zinc finger protein 624) | 1.07 | 1.02 | 0.95 |
| DMTN (dematin actin binding protein) | 1.21 | 1.04 | 0.86 |
| ASPA (aspartoacylase) | 1 | 0.86 | 0.86 |
| INPPL1 (inositol polyphosphate phosphatase like 1) | 1.16 | 0.88 | 0.76 |
| MINPP1 (multiple inositol-polyphosphate phosphatase 1) | 1.62 | 0.94 | 0.58 |
| SFMBT2 (Scm like with four mbt domains 2) | 1.23 | 1.08 | 0.88 |
| TUBA3E (tubulin alpha 3e) | 1.4 | 0.56 | 0.4 |
| CDH8 (cadherin 8) | 0.97 | 0.64 | 0.66 |
| DPM1 (dolichyl-phosphate mannosyltransferase subunit 1, catalytic) | 1.02 | 0.94 | 0.92 |
| CLEC2B (C-type lectin domain family 2 member B) | 0.87 | 0.59 | 0.68 |
| FAM32A (family with sequence similarity 32 member A) | 0.79 | 0.66 | 0.84 |
| PTK7 (protein tyrosine kinase 7 (inactive)) | 1.1 | 0.66 | 0.6 |
| PTPN13 (protein tyrosine phosphatase non-receptor type 13) | 1.4 | 0.95 | 0.68 |
| KLK13 (kallikrein related peptidase 13) | 1.14 | 0.99 | 0.87 |
| NCSTN (nicastrin) | 1.61 | 0.87 | 0.54 |
| PBX3 (PBX homeobox 3) | 0.88 | 0.91 | 1.04 |
| DCX (doublecortin) | 1.03 | 0.93 | 0.9 |
| HLA-DPA1 (major histocompatibility complex, class II, DP alpha 1) | 0.99 | 0.85 | 0.86 |
| MUC4 (mucin 4, cell surface associated) | 1.49 | 0.82 | 0.55 |
| TRHR (thyrotropin releasing hormone receptor) | 0.84 | 0.62 | 0.74 |
| PMS2P3 | 1.2 | 0.78 | 0.65 |
| YY1 (YY1 transcription factor) | 1 | 1.05 | 1.05 |
| E2F2 (E2F transcription factor 2) | 0.95 | 0.92 | 0.97 |
| SCARF1 (scavenger receptor class F member 1) | 1 | 0.36 | 0.36 |
| H2BC10 (H2B clustered histone 10) | 1.17 | 0.96 | 0.82 |
| LAMP1 (lysosome associated membrane protein 1) | 0.77 | 0.72 | 0.94 |
| IMPACT (impact RWD domain protein) | 0.44 | 0.22 | 0.5 |
| FRMPD2 (FERM and PDZ domain containing 2) | 0.92 | 0.78 | 0.85 |
| ORMDL2 (ORMDL sphingolipid biosynthesis regulator 2) | 1.16 | 0.74 | 0.64 |
| TPST1 (tyrosylprotein sulfotransferase 1) | 0.79 | 0.74 | 0.94 |
| CISD1 (CDGSH iron sulfur domain 1) | 1.08 | 0.93 | 0.86 |
| DYNLT2 (dynein light chain Tctex-type 2) | 1.12 | 1 | 0.89 |
| RNF123 (ring finger protein 123) | 0.97 | 0.97 | 1 |
| KATNBL1 (katanin regulatory subunit B1 like 1) | 0.73 | 0.71 | 0.97 |
| TRAFD1 (TRAF-type zinc finger domain containing 1) | 0.67 | 0.62 | 0.92 |
| LRRC52 (leucine rich repeat containing 52) | 1.17 | 0.91 | 0.78 |
| TF (transferrin) | 1.27 | 0.38 | 0.3 |
| GMDS (GDP-mannose 4,6-dehydratase) | 0.84 | 0.59 | 0.7 |
| NCF2 (neutrophil cytosolic factor 2) | 1 | 0.83 | 0.83 |
| SEC24B (SEC24 homolog B, COPII component) | 1.24 | 1.02 | 0.82 |
| PSMC5 (proteasome 26S subunit, ATPase 5) | 1.3 | 0.56 | 0.43 |
| MEPE (matrix extracellular phosphoglycoprotein) | 0.92 | 0.48 | 0.52 |
| XRCC1 (X-ray repair cross complementing 1) | 0.91 | 0.96 | 1.06 |
| ESPN (espin) | 1.21 | 1.05 | 0.87 |
| KHSRP (KH-type splicing regulatory protein) | 0.92 | 0.78 | 0.85 |
| IFNL2 (interferon lambda 2) | 1.1 | 0.8 | 0.73 |

A stretch from the list above, for reference:
| target | CDH1-null / parental viability ratio | CDH1-null viability vs mock (fraction of mock) | parental viability vs mock (fraction of mock) |
| --- | --- | --- | --- |
| IMPACT (impact RWD domain protein) | 0.44 | 0.22 | 0.5 |
| FRMPD2 (FERM and PDZ domain containing 2) | 0.92 | 0.78 | 0.85 |
| ORMDL2 (ORMDL sphingolipid biosynthesis regulator 2) | 1.16 | 0.74 | 0.64 |
| TPST1 (tyrosylprotein sulfotransferase 1) | 0.79 | 0.74 | 0.94 |
| CISD1 (CDGSH iron sulfur domain 1) | 1.08 | 0.93 | 0.86 |
